Values of other authors in US20050049293A1, “Use of cholinesterase antagonists to treat insulin resistance” (priority 2002, published 2005).

Legend:
[1] = test system: glucose uptake across organs; conditions: cats, following atropine; cited from earlier work
[2] = test system: hepatic uptake of glucose; conditions: after atropine; reduced from 80%; cited from earlier work

## CN1[C@@H]2CC[C@H]1C[C@@H](OC(=O)C(CO)c1ccccc1)C2 (stereo partly drawn) [atropine]
[1]
  Glucose uptake across the hindlimbs (skeletal muscle) in response to insulin: decreased
  Hepatic glucose response to insulin: not notably altered
[2]
  Proportion of glucose sequestered by the liver following oral administration: 44%
